Experimental data: the supplement of paper PMC10849652
Some of the results follow.

The chains behind the UniProt entries cited, without tags or fusion partners. Where a name states a change or a piece, a line headed by the entry shows the natural chain unless it says otherwise.
UniProt Q6ZNE5, whole entry, looked up: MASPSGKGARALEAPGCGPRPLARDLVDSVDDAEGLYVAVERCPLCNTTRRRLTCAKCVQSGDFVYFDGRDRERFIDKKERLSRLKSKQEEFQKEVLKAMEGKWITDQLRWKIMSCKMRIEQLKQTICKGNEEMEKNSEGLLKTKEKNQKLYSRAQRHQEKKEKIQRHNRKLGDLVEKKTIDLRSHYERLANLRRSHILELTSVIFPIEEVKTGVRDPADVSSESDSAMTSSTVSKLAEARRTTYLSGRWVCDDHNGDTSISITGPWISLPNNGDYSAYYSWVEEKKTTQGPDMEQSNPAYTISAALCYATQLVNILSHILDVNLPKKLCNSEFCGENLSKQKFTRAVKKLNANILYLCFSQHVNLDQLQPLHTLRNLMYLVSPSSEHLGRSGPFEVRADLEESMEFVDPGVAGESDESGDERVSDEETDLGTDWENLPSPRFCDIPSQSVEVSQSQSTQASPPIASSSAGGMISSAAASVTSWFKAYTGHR
UniProt P27449, whole entry, looked up: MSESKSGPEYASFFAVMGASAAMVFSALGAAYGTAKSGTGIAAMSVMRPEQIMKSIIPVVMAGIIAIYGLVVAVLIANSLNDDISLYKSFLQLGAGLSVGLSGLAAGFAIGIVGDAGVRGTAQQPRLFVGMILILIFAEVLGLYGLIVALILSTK
UniProt Q8N3C0, whole entry, looked up: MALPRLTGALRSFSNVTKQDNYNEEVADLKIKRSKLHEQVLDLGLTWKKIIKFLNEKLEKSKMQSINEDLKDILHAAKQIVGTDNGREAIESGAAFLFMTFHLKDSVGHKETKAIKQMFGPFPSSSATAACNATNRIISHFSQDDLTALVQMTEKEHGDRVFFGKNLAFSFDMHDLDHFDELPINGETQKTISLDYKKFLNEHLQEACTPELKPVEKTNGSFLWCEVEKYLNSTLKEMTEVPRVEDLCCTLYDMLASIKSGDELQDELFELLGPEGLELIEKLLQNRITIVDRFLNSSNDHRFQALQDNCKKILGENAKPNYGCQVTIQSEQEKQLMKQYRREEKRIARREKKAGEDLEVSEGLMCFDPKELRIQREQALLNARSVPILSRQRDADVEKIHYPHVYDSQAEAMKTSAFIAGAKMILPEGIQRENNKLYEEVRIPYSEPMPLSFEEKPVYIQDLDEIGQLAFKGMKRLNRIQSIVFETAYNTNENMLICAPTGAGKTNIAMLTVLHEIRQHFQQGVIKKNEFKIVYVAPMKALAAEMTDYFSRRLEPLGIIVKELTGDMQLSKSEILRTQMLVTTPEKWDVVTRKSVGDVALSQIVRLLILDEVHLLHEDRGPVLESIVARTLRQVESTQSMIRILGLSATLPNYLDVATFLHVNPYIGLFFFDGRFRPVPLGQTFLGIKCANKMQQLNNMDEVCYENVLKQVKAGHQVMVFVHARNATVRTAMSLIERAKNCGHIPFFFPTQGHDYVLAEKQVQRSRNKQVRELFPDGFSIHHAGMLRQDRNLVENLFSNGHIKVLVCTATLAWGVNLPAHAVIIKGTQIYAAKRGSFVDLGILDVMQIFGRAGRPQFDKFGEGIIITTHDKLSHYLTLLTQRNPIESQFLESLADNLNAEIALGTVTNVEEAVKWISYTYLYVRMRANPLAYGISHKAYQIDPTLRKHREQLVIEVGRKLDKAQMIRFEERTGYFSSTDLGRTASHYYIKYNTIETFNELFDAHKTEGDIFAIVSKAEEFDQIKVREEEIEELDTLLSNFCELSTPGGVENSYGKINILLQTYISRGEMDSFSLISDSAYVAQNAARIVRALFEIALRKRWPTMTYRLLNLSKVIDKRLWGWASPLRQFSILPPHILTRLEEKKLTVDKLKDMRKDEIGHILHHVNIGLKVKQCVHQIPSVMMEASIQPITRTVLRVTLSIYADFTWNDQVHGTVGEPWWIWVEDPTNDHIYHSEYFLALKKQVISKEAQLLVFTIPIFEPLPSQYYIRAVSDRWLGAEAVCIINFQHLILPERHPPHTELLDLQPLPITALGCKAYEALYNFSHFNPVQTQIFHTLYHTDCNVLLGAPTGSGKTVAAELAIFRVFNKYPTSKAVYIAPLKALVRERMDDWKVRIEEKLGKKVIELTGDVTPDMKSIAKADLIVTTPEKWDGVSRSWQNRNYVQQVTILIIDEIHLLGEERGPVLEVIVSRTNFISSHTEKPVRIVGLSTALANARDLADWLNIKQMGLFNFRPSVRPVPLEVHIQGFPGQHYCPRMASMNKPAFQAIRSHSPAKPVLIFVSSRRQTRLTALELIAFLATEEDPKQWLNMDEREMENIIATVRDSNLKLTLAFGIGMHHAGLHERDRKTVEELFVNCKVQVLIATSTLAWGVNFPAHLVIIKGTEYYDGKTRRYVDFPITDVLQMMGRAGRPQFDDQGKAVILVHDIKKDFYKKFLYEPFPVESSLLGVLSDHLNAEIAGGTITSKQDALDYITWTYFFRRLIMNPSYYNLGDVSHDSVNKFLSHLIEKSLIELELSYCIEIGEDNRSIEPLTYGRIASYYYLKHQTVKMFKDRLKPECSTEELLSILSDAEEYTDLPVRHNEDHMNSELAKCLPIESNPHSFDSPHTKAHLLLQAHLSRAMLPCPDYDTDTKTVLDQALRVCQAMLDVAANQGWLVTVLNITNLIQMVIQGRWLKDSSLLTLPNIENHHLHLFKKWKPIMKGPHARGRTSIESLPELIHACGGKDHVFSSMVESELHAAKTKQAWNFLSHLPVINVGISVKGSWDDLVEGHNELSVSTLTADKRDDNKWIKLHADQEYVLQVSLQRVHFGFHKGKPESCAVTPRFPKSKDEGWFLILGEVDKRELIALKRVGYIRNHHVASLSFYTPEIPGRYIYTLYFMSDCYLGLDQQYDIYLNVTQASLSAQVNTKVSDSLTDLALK
UniProt B2RBV5: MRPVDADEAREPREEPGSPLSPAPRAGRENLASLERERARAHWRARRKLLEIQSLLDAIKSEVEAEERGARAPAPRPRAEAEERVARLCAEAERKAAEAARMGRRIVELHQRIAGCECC
UniProt Q9Y575: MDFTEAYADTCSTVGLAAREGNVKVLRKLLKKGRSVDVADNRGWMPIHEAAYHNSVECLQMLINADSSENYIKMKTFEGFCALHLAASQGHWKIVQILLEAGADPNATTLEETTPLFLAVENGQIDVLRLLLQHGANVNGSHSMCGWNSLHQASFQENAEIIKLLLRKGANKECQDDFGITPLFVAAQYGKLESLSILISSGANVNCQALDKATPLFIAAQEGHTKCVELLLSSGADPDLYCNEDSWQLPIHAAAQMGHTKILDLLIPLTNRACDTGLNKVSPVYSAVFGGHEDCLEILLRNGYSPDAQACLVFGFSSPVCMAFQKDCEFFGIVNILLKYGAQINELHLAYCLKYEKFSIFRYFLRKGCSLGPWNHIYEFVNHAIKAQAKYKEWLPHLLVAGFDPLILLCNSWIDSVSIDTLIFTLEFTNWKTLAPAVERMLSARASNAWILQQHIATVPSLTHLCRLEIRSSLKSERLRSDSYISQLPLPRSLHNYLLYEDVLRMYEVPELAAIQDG
UniProt Q93050, whole entry, looked up: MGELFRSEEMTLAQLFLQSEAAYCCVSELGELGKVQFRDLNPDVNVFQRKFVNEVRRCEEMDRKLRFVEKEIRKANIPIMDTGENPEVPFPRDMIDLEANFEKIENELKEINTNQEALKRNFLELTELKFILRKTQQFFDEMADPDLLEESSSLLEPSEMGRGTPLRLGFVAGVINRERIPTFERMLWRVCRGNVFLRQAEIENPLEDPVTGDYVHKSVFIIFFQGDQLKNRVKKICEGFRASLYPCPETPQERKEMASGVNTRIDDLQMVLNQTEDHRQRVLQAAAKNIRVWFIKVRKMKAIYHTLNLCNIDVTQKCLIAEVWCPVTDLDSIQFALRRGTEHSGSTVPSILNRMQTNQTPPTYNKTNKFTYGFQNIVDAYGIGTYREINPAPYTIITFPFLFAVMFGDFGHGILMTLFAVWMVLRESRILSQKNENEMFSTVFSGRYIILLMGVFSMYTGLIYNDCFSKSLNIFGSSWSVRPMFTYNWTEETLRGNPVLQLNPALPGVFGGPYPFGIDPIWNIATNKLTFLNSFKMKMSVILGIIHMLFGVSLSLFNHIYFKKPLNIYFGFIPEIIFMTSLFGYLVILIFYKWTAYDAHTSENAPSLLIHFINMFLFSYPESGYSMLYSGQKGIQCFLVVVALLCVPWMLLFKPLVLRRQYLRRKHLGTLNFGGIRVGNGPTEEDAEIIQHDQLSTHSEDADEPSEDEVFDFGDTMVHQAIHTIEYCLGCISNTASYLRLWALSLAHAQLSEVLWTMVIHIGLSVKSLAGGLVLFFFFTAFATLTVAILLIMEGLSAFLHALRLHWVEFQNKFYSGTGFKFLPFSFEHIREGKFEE
UniProt P36542: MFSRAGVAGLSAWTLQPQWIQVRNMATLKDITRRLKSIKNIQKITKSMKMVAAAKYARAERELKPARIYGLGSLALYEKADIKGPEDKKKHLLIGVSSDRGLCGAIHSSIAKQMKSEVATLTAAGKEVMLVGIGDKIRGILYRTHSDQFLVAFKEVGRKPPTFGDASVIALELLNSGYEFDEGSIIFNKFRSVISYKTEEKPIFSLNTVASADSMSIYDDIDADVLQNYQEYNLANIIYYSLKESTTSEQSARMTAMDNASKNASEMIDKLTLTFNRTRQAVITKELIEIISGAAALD
UniProt Q96L58: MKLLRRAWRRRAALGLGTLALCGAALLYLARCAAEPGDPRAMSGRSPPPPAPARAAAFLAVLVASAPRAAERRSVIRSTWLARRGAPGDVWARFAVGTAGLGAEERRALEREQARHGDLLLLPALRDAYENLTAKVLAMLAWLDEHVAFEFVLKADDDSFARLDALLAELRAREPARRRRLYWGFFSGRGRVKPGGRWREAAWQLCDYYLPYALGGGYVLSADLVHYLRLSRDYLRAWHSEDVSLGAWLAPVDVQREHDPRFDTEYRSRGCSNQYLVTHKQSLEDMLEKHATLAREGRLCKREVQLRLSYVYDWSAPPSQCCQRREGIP
UniProt P98194: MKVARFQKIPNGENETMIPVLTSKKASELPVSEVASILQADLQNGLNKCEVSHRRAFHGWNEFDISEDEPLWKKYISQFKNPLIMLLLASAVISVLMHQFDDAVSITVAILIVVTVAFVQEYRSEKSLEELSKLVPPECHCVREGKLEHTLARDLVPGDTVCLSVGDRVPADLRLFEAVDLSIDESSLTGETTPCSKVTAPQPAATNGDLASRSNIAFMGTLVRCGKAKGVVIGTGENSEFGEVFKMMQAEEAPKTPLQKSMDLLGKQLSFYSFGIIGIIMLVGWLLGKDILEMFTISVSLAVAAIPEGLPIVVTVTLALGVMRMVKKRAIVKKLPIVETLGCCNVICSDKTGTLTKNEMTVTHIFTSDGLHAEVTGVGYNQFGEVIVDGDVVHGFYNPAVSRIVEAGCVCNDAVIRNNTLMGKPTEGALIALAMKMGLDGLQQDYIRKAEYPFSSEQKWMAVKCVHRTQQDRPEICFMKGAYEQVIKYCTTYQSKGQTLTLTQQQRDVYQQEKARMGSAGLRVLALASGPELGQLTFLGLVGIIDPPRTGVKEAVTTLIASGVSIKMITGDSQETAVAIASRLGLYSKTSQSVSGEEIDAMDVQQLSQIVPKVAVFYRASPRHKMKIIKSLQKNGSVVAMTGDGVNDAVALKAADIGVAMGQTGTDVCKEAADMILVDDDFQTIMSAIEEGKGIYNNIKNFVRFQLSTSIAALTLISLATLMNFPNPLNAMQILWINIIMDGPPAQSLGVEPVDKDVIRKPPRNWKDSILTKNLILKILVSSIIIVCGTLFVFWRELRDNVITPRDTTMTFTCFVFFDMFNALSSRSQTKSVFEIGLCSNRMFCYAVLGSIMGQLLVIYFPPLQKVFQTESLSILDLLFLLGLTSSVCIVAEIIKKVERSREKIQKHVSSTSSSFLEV
UniProt Q53RT3: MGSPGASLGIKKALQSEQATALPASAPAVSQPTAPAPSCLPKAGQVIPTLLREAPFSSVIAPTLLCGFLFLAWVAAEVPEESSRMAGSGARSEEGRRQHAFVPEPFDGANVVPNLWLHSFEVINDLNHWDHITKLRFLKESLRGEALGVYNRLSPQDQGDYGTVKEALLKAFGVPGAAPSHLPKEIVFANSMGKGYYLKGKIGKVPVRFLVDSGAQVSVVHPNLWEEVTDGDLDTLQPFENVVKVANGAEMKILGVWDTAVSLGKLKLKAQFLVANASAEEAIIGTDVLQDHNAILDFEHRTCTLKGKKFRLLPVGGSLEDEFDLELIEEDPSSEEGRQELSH
UniProt Q67FW5: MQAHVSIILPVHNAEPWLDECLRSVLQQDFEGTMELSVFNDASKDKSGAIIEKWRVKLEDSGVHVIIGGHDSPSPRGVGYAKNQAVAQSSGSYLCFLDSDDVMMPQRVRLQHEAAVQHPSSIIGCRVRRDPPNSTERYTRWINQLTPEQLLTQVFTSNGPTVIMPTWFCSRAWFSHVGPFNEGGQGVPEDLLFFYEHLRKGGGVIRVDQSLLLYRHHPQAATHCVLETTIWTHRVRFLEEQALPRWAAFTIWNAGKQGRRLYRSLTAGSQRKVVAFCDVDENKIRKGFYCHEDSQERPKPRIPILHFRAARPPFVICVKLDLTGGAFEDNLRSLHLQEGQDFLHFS

What was measured:
Test in all cases: log2 fold change, soluble protein after heating vs DMSO (PISA); higher = thermal stabilisation; K562 lysate, 10 uM; active = over 0.2 and 3.5 SD of the protein, either way, in both replicates (recomputed)
[1] = compound: C#Cc1cccc(Nc2ncnc3cc(OCCOC)c(OCCOC)cc23)c1 [erlotinib]
How it was run: (§1)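 Thermal stability, expressed as log-two fold change relative to solvent controls, is given from duplicates. Crude K562 extract in PBS pH 7.4 with 1 mM MgCl2, at 1 mg/mL protein, was treated with 10 μM compound for 30 min and heated in aliquots for 3 min across 48°C-58°C. After pooling, adjustment to 0.5% NP-40 at 4°C and centrifugation at 21,000xg for 90 min, supernatant protein was measured by TMTpro 16plex LC-MS/MS with channel sums equalised.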

[2] = compound: C/C(=N\NC(=O)C1=CC(=CC=C1)S(=O)(=O)N2CCOCC2)/C3=C(C=CC(=C3)Cl)O
How it was run: as §1

[3] = compound: C1=CC(=CC=C1C2=NC3=C(N2)C=C(C=C3)C(=O)N)OC4=CC=C(C=C4)Cl
How it was run: as §1

[4] = compound: C1=CC2=C(C=CC(=C2)/C=C\3/C(=O)NC(=NCC4=CC=CS4)S3)N=C1
How it was run: as §1

[5] = compound: C1=CC2=NC=CN=C2C=C1/C=C/3\C(=O)NC(=O)S3
How it was run: as §1

[6] = compound: C1=CC=C2C(=C1)C3=NNC4=CC=CC(=C43)C2=O
How it was run: as §1

[7] = compound: C1CCN(C1)C(=O)NC2=CC=CC(=C2)NC3=NC=C(C(=N3)NCCC4=CN=CN4)Br
How it was run: as §1

[8] = compound: C1CN(CCC1(CC2=CC=C(C=C2)Cl)N)C3=NC=NC4=C3C=CN4
How it was run: as §1

[9] = compound: C=CC(=O)N1CCC[C@@H](n2nc(-c3ccc(Oc4ccccc4)cc3)c3c(N)ncnc32)C1 [ibrutinib]
How it was run: as §1

[10] = compound: CC(C)C1=C2N=C(C=C(N2N=C1)NCC3=CC=CC=C3)NCCCCCCN
How it was run: as §1

[11] = compound: CC1=C(C(CC(=O)N1)C2=CC=C(C=C2)C(F)(F)F)C(=O)NC3=C(C=C4C(=C3)C=NN4)F
How it was run: as §1

[12] = compound: CC1=C(C2=C(C=C1)C(=O)C3=CC=CC=C3N2CCCN)C
How it was run: as §1

[13] = compound: C1=CC=C(C=C1)C2=NC(=C(N2)C3=CC=NC=C3)C4=CC(=C(C=C4)Cl)O
How it was run: as §1

[14] = compound: C1COCCN1CCN2C3=CC=CC=C3N=C2NC(=O)C4=CC(=CC=C4)[N+](=O)[O-] [IRAK-1-4 Inhibitor I]
How it was run: as §1

[15] = compound: CC(=O)c1cnc2ccc(-c3cc(Cl)c(O)c(Cl)c3)nc2c1N[C@H]1CC[C@H](CN(C)C)CC1
How it was run: as §1

[16] = compound: CC(C)(C)Cn1c(N)nc2ccc(-c3[nH]c(C(C)(C)C)nc3-c3ccc(F)cc3)nc21 [ralimetinib]
How it was run: as §1

[17] = compound: CC(C)(O)CC(=O)NCCn1ccc2ncnc(Nc3ccc(Oc4cccc(C(F)(F)F)c4)c(Cl)c3)c21
How it was run: as §1

[18] = compound: CC1=C(C=C(C=C1)NC(=O)C2=CC(=CC=C2)C(C)(C)C#N)NC3=CC4=C(C=C3)N=CN(C4=O)C
How it was run: as §1

[19] = compound: CC1=C(C=C(C=C1)NC(=O)C2=CC(=CC=C2)N(C)C)NC(=O)C3=CC=C(C=C3)O
How it was run: as §1

[20] = compound: CC1=CC=C(C=C1)SC2=C3C=C(SC3=CN=C2)C(=O)N
How it was run: as §1

Measured: log2 fold change

ATG14 (UniProt Q6ZNE5)
inactive: [1] 0.071 | [2] -0.227 | [3] 0.064 | [4] 0.067 | [5] -0.026 | [6] 0.053 | [7] -0.49 | [8] -0.054 | [9] 0.077 | [10] 0.009 | [11] -0.096 | [12] 0.167

ATP6V0C (UniProt P27449)
inactive: [1] -0.075 | [2] 0.007 | [3] 0.078 | [4] 0.017 | [5] 0.01 | [13] -0.086 | [6] 0.036 | [7] -0.107 | [8] -0.008 | [14] -0.034 | [9] 0.006 | [15] -0.075 | [16] -0.027 | [17] 0.009 | [10] -0.051 | [12] 0.047 | [18] 0.066 | [19] 0.028 | [20] 0.09

ASCC3 (UniProt Q8N3C0)
inactive: [1] 0.06 | [2] -0.175 | [3] 0.02 | [4] -0.044 | [5] -0.022 | [13] 0.03 | [6] -0.079 | [7] -0.026 | [8] 0.02 | [14] 0.013 | [9] 0 | [15] -0.023 | [16] 0.03 | [17] -0.022 | [10] 0.042 | [11] 0.011 | [12] -0.109 | [18] -0.011 | [19] 0.046 | [20] -0.027

ASXL2 (UniProt Q76L83)
inactive: [1] 0.081 | [3] 0.036 | [5] -0.153 | [13] -0.007 | [14] -0.062 | [9] -0.002 | [15] -0.045 | [16] 0.115 | [17] 0.034 | [10] -0.042 | [12] 0.04 | [18] 0.13 | [19] 0.002 | [20] 0

ATF6 (UniProt P18850)
inactive: [1] -0.102 | [3] -0.102 | [13] -0.251 | [7] 0.115 | [8] 0.307 | [14] 0.007 | [16] 0.04 | [17] -0.267 | [10] 0.3 | [19] 0.073

ATP5F1B (UniProt F8W079)
inactive: [5] -0.048 | [7] 0.003 | [8] -0.076 | [9] 0.176 | [15] 0.014 | [11] 0.312 | [20] 0.035

ASS1 (UniProt P00966)
inactive: [1] -0.013 | [3] -0.086 | [5] -0.003 | [13] 0.001 | [7] 0.032 | [8] 0.02 | [14] 0.001 | [9] 0.031 | [15] 0.052 | [16] 0.007 | [17] 0.022 | [10] 0.005 | [11] 0.014 | [12] 0.013 | [18] -0.048 | [19] -0.01 | [20] -0.002

Reprinted at random: two records from the list, in no set order.
ATF6 (UniProt P18850)
inactive: [1] -0.102 | [3] -0.102 | [13] -0.251 | [7] 0.115 | [8] 0.307 | [14] 0.007 | [16] 0.04 | [17] -0.267 | [10] 0.3 | [19] 0.073

ASXL2 (UniProt Q76L83)
inactive: [1] 0.081 | [3] 0.036 | [5] -0.153 | [13] -0.007 | [14] -0.062 | [9] -0.002 | [15] -0.045 | [16] 0.115 | [17] 0.034 | [10] -0.042 | [12] 0.04 | [18] 0.13 | [19] 0.002 | [20] 0

(continued)

ATAD2B (UniProt Q9ULI0)
inactive: [5] -0.455 | [13] 0.015 | [14] -0.142 | [9] -0.027 | [16] -0.044 | [17] -0.28 | [19] -0.024

ATP1B4 (UniProt Q9UN42)
inactive: [13] -0.038 | [14] -0.101 | [15] -0.041 | [16] 0.042 | [17] 0.139 | [12] 0.006 | [18] -0.03 | [19] 0.03 | [20] -0.097

ATXN2 (UniProt F8WB06)
inactive: [12] 0.187

NA (UniProt B2RBV5)
inactive: [1] -0.145 | [3] -0.025 | [5] 0.052 | [7] -0.032 | [8] 0.073 | [9] -0.079 | [15] -0.071 | [10] 0.143 | [11] 0.056 | [18] 0.031 | [20] -0.09

ATXN7L3 isoform 2 (UniProt Q14CW9)
inactive: [1] -0.285 | [3] -0.115 | [5] -0.029 | [13] -0.034 | [14] 0.039 | [9] -0.298 | [15] 0.089 | [16] 0.055 | [17] -0.076 | [10] 0.017 | [11] 0.357 | [12] 0.05 | [18] -0.143 | [19] -0.012 | [20] -0.123

ASB3 isoform 3 (UniProt Q9Y575)
inactive: [2] 0.293 | [4] -0.059 | [5] 0.243 | [6] -0.119 | [7] 0.12 | [8] 0.054 | [9] -0.132 | [11] -0.082

ATG4D (UniProt Q86TL0)
inactive: [5] 0.072 | [13] 0.049 | [7] 0.047 | [8] -0.074 | [14] -0.142 | [9] -0.086 | [16] 0.049 | [17] 0.074 | [12] 0.319 | [18] -0.096 | [19] -0.052

ATP6V0A1 (UniProt Q93050)
inactive: [1] 0.112 | [3] 0.061 | [5] 0.072 | [13] 0.067 | [14] -0.015 | [9] -0.018 | [15] -0.145 | [16] 0.02 | [17] 0.19 | [10] 0.041 | [12] 0.103 | [18] -0.048 | [19] -0.116 | [20] -0.104

ATP11C, A0A067XG54
inactive: [1] 0.024 | [3] -0.026 | [5] -0.006 | [13] 0.013 | [14] 0.078 | [9] 0.039 | [15] 0.051 | [16] -0.081 | [17] -0.023 | [10] -0.011 | [12] 0.018 | [18] 0.02 | [19] 0.046 | [20] 0.111

B3GALNT2 (UniProt Q8NCR0)
inactive: [13] -0.08 | [14] -0.056 | [15] 0.092 | [16] 0.005 | [17] -0.154 | [11] 0.086 | [12] 0.071 | [18] -0.101 | [19] 0.001 | [20] -0.117

ATP5F1C isoform 2 (UniProt P36542)
inactive: [5] -0.152 | [13] 0.231 | [14] -0.063 | [9] -0.038 | [16] 0.032 | [17] 0.039 | [18] -0.086 | [19] -0.047

B3GALT6 (UniProt Q96L58)
inactive: [1] 0.074 | [3] -0.04 | [5] 0.022 | [13] -0.028 | [14] -0.049 | [9] -0.025 | [16] 0.065 | [17] 0.23 | [10] -0.025 | [12] -0.112 | [18] -0.168 | [19] -0.046

ASXL3 (UniProt Q9C0F0)
inactive: [1] -0.057 | [3] -0.068 | [13] 0.044 | [14] -0.079 | [15] -0.055 | [16] 0.206 | [17] 0.132 | [10] -0.006 | [18] -0.013 | [19] 0.09 | [20] 0.049

ATP2C1 isoform 3 (UniProt P98194)
inactive: [1] 0.035 | [3] -0.129 | [13] 0.076 | [14] 0.121 | [16] 0.074 | [17] 0.064 | [10] 0 | [19] 0.055

ATPSCKMT (UniProt Q6P4H8)
inactive: [5] 0 | [13] 0.075 | [7] -0.074 | [8] -0.006 | [14] -0.046 | [9] -0.042 | [16] -0.15 | [17] 0.088 | [12] 0.019 | [18] -0.015 | [19] -0.001

ASPRV1 (UniProt Q53RT3)
inactive: [1] -0.014 | [3] -0.139 | [10] 0.286

B3GNTL1 (UniProt Q67FW5)
inactive: [5] -0.097 | [13] -0.098 | [7] 0.197 | [8] 0.115 | [14] 0.125 | [9] 0.109 | [15] -0.126 | [16] -0.118 | [17] -0.093 | [18] -0.034 | [19] 0.002 | [20] 0.023
